Experimental data taken from article PMC3084792.
No constants are given. Whether binding was seen depends on the method and setting. Binding seen in cells or lysates may run through a third protein. Some results given as binding are weak or reduced against the parent protein; the word gives no strength.

Amino acid sequences for entries named in this document (tags omitted).
UniProt Q92831: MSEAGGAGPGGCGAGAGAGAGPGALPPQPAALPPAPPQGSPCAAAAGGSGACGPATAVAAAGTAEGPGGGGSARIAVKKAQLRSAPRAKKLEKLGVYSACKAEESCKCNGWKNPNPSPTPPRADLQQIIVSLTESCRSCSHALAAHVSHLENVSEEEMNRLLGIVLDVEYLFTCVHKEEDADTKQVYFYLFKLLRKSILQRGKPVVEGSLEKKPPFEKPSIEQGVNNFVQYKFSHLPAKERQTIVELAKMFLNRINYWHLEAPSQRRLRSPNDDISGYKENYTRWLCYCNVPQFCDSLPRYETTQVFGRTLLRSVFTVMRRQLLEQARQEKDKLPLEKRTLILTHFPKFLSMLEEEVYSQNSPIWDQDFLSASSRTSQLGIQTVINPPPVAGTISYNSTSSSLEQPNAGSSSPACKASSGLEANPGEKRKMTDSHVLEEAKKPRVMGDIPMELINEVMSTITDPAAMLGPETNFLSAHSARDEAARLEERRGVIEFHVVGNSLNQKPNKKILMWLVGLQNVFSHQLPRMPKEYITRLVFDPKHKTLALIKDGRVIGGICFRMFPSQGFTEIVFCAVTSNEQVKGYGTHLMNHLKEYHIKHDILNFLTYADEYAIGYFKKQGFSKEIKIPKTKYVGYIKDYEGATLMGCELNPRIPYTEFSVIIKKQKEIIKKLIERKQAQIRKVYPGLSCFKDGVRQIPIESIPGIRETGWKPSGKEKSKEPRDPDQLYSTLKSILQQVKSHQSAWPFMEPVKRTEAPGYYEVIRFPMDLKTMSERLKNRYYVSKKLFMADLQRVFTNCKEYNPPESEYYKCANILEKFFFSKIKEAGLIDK
UniProt Q9Y4A5: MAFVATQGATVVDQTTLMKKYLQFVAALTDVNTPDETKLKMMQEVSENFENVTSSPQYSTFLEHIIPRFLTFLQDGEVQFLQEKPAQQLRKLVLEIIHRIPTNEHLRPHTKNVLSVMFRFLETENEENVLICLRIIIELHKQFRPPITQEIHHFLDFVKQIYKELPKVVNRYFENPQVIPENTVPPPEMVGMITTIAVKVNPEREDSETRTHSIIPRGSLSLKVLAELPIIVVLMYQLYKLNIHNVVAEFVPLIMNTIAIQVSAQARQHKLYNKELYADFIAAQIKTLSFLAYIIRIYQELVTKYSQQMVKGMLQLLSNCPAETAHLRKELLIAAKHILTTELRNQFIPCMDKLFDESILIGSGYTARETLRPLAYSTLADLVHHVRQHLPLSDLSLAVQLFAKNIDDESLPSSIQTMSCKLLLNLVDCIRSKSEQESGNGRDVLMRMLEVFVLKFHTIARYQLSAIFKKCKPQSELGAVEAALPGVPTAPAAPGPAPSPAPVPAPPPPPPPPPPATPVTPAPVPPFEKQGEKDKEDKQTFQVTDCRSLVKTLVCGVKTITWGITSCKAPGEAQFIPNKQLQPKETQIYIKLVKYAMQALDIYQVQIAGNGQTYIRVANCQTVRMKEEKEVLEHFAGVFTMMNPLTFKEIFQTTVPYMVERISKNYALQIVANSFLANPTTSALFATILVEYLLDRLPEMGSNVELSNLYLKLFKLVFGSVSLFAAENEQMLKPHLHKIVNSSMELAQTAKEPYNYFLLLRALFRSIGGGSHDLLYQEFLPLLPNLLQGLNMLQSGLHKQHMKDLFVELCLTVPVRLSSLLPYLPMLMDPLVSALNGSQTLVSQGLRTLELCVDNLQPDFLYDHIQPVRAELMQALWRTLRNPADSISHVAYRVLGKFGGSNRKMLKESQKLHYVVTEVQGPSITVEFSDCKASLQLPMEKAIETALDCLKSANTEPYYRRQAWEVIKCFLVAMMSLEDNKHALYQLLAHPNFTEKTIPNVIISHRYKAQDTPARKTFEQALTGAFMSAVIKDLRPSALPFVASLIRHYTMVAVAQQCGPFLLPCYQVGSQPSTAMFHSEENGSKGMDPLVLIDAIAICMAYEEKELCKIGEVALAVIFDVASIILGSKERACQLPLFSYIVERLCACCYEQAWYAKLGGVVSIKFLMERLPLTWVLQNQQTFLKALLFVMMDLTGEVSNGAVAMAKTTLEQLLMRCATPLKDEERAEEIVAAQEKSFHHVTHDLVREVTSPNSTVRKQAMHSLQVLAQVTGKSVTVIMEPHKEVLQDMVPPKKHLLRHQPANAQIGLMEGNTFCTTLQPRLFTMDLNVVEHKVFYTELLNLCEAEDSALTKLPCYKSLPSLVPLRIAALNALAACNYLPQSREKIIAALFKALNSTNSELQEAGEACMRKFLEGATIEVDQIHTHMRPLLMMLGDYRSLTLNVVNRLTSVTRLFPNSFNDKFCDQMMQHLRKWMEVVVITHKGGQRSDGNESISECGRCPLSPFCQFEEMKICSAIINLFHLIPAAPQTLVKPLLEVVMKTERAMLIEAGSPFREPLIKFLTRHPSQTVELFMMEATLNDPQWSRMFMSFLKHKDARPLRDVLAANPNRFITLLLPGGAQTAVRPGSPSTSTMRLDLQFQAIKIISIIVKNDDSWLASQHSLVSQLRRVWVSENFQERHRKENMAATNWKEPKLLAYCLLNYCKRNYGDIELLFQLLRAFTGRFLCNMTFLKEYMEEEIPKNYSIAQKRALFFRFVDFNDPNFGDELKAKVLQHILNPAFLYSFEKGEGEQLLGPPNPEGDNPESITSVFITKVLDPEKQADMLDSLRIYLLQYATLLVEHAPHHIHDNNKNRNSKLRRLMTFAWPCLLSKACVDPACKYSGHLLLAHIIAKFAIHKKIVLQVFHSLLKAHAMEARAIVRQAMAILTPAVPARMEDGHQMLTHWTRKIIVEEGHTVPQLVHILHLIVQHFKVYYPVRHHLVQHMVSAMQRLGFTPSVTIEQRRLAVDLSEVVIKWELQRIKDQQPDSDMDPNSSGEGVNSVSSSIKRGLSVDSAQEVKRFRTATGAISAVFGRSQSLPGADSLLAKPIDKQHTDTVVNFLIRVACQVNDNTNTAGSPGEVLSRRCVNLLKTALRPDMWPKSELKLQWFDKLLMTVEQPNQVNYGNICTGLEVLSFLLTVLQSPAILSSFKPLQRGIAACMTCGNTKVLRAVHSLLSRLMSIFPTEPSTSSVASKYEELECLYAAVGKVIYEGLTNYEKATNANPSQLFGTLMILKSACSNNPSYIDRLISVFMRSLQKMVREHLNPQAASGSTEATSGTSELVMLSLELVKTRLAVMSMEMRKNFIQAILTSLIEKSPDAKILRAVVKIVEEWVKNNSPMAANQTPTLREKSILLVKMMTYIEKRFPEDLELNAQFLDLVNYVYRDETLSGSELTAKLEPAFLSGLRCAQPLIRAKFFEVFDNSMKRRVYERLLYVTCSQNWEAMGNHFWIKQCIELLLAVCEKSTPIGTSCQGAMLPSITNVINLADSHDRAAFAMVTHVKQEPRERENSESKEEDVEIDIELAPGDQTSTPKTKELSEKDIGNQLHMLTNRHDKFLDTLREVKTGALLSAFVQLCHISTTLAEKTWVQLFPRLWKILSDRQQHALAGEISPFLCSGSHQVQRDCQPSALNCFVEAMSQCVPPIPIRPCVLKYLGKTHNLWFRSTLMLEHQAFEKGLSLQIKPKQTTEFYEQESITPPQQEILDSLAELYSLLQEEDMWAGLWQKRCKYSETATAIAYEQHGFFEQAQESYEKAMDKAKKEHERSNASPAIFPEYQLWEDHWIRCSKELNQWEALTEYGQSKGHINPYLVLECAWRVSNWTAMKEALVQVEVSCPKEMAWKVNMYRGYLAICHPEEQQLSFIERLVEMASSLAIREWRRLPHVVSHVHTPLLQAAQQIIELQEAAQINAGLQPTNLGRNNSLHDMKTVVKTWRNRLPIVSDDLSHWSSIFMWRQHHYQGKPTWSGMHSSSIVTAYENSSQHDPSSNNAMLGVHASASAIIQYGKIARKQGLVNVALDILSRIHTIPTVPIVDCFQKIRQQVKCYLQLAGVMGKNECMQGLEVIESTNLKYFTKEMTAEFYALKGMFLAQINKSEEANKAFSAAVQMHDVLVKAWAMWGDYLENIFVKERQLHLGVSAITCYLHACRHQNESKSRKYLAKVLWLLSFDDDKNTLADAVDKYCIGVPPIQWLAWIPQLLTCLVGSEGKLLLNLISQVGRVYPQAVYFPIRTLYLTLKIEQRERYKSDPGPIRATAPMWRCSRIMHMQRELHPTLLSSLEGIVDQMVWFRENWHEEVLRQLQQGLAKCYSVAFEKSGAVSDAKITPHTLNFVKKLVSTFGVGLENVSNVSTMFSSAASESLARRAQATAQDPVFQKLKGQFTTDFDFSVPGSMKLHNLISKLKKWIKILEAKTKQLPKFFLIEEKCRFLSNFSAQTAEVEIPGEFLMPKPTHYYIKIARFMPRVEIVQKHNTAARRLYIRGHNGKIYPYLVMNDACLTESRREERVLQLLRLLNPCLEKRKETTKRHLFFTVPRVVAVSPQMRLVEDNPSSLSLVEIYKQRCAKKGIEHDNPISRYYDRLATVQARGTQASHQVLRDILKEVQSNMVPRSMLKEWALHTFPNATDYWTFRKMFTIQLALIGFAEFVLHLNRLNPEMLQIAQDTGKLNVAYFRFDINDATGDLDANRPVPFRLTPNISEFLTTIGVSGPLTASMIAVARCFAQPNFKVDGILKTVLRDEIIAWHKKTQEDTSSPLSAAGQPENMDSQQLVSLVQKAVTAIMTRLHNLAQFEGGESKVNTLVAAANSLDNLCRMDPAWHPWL
UniProt Q92830: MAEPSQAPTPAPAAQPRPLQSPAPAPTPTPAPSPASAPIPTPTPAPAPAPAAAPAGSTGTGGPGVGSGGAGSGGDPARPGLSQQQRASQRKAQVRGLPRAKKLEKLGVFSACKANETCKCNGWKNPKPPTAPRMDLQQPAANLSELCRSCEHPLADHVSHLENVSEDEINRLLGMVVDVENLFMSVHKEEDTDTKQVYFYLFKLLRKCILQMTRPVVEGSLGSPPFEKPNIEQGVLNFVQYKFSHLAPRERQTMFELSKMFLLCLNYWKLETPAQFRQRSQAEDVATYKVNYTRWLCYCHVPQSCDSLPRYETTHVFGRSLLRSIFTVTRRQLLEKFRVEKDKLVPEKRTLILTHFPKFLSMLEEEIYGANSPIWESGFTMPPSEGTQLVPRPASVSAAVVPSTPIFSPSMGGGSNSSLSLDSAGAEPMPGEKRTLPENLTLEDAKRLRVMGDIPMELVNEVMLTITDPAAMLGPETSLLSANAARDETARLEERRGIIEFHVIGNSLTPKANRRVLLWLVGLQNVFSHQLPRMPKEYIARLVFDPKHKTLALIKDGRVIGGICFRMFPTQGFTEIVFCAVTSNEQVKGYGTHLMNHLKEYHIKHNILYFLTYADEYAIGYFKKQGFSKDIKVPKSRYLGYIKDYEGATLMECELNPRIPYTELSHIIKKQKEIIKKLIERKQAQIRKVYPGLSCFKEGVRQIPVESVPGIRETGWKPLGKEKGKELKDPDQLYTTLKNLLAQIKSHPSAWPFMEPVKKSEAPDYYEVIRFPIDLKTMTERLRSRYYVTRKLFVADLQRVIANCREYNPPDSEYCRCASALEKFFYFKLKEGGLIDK

How the values were obtained:
[1] = target: T1, William syndrome transcription factor (WSTF) (human (endogenous in HeLa)) (UniProt Q9UIG0); test: co-IP; HeLa nuclear extract prepared at 0.2 M KCl (200 to 300 ug), antibody over night, Protein A/G beads, immunoblot; IgG as control
T1 sequence: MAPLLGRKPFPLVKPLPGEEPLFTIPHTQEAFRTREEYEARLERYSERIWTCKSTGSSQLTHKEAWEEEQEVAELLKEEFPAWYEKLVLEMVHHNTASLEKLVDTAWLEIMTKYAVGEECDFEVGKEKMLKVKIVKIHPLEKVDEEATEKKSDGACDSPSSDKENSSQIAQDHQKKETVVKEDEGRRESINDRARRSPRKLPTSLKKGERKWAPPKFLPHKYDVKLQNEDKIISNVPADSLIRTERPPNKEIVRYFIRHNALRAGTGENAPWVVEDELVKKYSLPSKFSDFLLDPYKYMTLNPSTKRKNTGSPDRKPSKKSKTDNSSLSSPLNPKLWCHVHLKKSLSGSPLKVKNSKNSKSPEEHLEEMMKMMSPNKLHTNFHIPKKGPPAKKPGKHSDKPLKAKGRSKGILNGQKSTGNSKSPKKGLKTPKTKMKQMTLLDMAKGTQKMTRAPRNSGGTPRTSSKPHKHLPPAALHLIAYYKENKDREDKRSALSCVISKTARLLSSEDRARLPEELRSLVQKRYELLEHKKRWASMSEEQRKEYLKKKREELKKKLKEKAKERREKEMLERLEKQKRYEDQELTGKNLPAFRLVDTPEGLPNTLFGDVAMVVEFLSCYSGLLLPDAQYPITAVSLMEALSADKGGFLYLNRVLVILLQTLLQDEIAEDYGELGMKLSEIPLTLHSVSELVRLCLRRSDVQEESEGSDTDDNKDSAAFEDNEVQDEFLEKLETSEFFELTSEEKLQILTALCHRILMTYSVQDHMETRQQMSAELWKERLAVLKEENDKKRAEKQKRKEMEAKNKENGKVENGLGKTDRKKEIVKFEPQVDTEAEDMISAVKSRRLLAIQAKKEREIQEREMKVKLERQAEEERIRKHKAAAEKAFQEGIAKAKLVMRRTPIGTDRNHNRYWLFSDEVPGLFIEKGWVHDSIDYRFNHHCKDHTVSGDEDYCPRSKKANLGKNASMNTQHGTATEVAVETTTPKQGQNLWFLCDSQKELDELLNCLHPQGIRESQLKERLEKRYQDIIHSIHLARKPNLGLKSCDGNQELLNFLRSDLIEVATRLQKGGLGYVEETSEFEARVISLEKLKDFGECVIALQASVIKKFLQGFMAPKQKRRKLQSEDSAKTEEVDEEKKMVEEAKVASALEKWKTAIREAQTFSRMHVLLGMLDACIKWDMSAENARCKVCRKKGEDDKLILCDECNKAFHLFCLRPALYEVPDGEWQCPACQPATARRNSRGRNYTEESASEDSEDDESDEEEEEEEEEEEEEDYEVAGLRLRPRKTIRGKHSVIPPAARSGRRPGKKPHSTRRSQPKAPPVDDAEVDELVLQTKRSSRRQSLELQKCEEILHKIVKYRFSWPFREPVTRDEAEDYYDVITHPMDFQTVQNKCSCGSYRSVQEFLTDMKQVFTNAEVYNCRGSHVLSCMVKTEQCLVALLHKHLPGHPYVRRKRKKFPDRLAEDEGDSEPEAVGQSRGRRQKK

[2] = target: T1, William syndrome transcription factor (WSTF) (human (endogenous in HeLa)); test: co-IP; HeLa nuclear extract prepared at 0.7 M KCl (200 to 300 ug), antibody over night, Protein A/G beads, immunoblot; IgG as control

Substance | binding [1] | binding [2]
PCAF (from UniProt Q92831 1-832) | binds weakly | –
TRRAP (from UniProt Q9Y4A5 1-3859) | binds weakly | binds weakly
hGCN5 (from UniProt Q92830 1-837) | no binding | no binding
p300 (from UniProt Q09472 1-2414) | no binding | no binding
